From PMC4353692 come the findings set out here.

Results are given in words; binding and its absence hold for the method and conditions named. Binding calls can cover weak binding; strength is not graded here.

The test deals with Manduca sexta V-ATPase subunit a (Manduca sexta (endogenous in midgut)). The experiment in a line: cryo-EM structure; M. sexta V-ATPase holoenzyme purified from tissue, in C12E10; 9.4 Å reconstruction (gold standard FSC 0.143); homology models of the subunits flexibly fitted by MDFF; side chains not resolved; both purified.

B1: Manduca sexta V-ATPase subunit G (protein, UniProt Q25532 1-117)
chain: MASQTHGIQQLLAAEKRAAEKVSEARKRKAKRLKQAKEEAQDEVEKYRQERERQFKEFEAKHMGTREGVAAKIDAETRIKIDEMNKMVQTQKEAVIKDVLNLVYDIKPELHINYRVV
Consider B1, for which the binding result is listed as “binds”.
